Where cells or extracts were used, other partners may take part. Where a protein sequence is shown, tags need not be part of it.
Target: T1, goosecoid-like homeodomain protein (gscl) (Mus musculus) (UniProt P56916)
T1 sequence (looked up, limits assumed): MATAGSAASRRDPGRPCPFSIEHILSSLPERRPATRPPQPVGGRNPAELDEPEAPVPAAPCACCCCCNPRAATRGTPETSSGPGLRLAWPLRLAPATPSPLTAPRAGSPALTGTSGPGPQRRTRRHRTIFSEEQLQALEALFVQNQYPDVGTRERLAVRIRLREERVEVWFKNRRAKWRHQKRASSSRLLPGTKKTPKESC
Assay: EMSA
Details: protein in a lysate after overexpression

[1] = specific binding by EMSA and supershift, data not shown

Sequence	binding result [1]	binding result (specific complex, supershifted by anti-gscl antiserum, competition with 25x and 12.5x unlabeled BBE II, label: 32P)
GCTAATCCC (double strand) [hTH BBE III]	binds	–
GCTAATCCC (double strand) [hTH BBE II]	–	binds
TGTAATCCC (double strand) [hTH BBE IV]	binds	–
TGTAATCCC (double strand) [hTH BBE I]	binds	–
